Changes are numbered by the printed parent chain. In names and notes the source's numbering stands. These are yes or no findings as the source states them, for the method shown. In cells and extracts the contact can be indirect. Some entries that bind do so weakly or less than the wild type. For some assays here: Where a sequence is shown, tags or fusion partners need not be part of it. One block for each molecule: values may come before it.
Key:
[1] = biological target: T1, endogenous WWOX (MCF7) (human (endogenous in MCF7)) (UniProt Q9NZC7); test: co-IP; endogenous proteins; MCF7 cell extract with 800 µg of total proteins immunoprecipitated with anti-WWOX antibody; immunoblot with anti-MERIT40 and anti-WWOX
T1 sequence: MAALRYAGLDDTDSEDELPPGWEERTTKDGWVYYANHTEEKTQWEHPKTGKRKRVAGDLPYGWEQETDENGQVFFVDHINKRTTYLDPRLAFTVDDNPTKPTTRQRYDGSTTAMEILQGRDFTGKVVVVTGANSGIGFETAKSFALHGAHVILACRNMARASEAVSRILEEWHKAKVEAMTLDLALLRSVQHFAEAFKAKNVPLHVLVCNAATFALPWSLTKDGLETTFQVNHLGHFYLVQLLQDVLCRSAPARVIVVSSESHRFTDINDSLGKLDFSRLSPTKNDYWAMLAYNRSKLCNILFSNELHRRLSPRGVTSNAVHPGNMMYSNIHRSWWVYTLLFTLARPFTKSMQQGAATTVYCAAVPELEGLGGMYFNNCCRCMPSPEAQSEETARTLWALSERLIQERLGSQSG

Protein sequences, listed by entry. Tags and fused reporters are not part of them.
UniProt Q9NWV8: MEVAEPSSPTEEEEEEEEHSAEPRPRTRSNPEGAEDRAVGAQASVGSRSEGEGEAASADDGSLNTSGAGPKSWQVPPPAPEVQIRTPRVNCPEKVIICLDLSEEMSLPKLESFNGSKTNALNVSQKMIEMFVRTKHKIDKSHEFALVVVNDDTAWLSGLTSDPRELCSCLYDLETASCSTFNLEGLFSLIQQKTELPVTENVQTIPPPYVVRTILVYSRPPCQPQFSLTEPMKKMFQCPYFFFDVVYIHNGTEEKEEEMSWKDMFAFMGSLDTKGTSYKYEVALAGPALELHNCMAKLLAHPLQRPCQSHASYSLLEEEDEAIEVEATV

[2] = biological target: HA-MERIT40 (UniProt Q9NWV8); test: co-IP; HEK293 cells transfected with HA-MERIT40 and Flag-Tankyrase, with or without Myc-WWOX or Myc-WWOX_(Y33R) (IP anti-HA), or after siRNA control or siRNA WWOX (IP anti-Flag); immunoblot
[3] = biological target: Flag-MERIT40 (UniProt Q9NWV8); test: co-IP; HEK293 cells transiently transfected with two tagged proteins; immunoprecipitation with anti-Flag antibody; immunoblot of immunoprecipitates and lysates

B3: HA-WWOX_(Y33R) (protein, UniProt Q9NZC7 1-414)
chain: T1 sequence with Y33R
binding [3]: binds

B4: HA-WWOX (protein, UniProt Q9NZC7 1-414)
chain: T1 sequence
binding [3]: binds

Results, then the molecule that gave them:

binding [1]: binds
Molecule: endogenous MERIT40 (MCF7) (from UniProt Q9NWV8 1-329)

binding [2]: binds
B1: Myc-WWOX_(Y33R) (protein, UniProt Q9NZC7 1-414)
chain: T1 sequence with Y33R

binding [2]: binds
B2: Myc-WWOX (protein, UniProt Q9NZC7 1-414)
chain: T1 sequence

— PMC10425285
